Among the data in paper PMC11432723 are binding values, retold here.

The chains behind the UniProt entries cited, without tags or fusion partners.
UniProt Q9UNE7: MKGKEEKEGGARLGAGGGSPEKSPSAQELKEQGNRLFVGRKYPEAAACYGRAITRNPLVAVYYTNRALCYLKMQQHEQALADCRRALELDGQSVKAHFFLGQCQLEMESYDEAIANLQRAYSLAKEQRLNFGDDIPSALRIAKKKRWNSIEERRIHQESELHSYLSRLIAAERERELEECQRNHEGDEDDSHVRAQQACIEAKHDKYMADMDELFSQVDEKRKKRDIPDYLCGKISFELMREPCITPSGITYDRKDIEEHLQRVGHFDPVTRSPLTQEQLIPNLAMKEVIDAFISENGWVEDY
UniProt Q86TM6: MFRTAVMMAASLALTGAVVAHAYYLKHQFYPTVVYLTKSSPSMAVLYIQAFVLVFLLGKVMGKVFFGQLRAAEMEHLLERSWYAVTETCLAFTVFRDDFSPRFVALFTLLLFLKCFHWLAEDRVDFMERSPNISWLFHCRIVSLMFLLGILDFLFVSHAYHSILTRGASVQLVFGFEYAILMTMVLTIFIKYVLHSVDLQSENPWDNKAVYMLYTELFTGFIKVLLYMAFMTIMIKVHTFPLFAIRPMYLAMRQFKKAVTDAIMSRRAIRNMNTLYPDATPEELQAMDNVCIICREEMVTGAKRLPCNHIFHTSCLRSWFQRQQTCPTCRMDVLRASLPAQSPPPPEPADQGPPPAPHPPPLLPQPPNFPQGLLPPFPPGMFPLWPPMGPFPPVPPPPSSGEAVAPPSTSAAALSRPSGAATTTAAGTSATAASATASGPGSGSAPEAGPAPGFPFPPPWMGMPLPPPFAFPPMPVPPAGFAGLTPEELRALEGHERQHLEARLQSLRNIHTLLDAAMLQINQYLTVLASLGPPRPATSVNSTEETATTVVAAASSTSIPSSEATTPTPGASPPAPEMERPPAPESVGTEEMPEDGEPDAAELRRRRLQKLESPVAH

These are yes or no findings as the source states them, for the method shown. In cells and extracts the contact can be indirect. Some results given as binding are weak or reduced against the parent protein; the word gives no strength.

In the assay the target is T1, myocilin (human (endogenous in primary TMC strain)) (UniProt Q99972).
T1 sequence: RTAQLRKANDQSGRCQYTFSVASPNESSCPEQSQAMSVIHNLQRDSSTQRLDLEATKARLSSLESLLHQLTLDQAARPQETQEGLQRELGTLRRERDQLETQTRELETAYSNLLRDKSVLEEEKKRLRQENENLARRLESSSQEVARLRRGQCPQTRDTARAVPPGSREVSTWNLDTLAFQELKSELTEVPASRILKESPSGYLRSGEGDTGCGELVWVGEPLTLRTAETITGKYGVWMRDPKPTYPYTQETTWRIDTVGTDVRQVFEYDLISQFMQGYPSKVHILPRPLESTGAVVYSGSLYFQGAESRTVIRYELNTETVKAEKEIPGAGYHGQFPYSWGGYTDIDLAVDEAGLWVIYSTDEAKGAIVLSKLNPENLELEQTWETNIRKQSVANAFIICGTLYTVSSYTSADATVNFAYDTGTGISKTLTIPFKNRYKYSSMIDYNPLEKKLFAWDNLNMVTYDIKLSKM
The assay is described as follows: co-IP; anti-myocilin antibody (clone 7.1) on M-270 epoxy Dynabeads, soluble fraction of lysates of untreated TMCs; lysis buffer with 1 mM DTT, 50 mM NaCl and inhibitors; slow mixing at 4 °C; species-matching control IgGs in parallel; denaturing and reducing Western blot.

Consider “STUB1/CHIP (from UniProt Q9UNE7 1-303) (enzyme)”, for which the binding result is “binds”. The entry for “synoviolin (SYVN1) (from UniProt Q86TM6 1-617) (enzyme)” is “no binding”.
